Results deposited as PubChem BioAssay AID504784 (Drosophila RNAi Screening Center, 2011)

- Purpose: 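Search for regulators of lipid droplet storage in oleate-fed fly cells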 (primary screen)
- System: Drosophila Kc167 embryonic cells
- Reagents: long dsRNA against Drosophila genes, about 250 ng dsRNA per well
- Timing: 4 days
- Conditions: cells fed 400 µM oleic acid bound to BSA
- Measured: 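Cells imaged and segmented; ratio of lipid droplet area to nuclear area, log-transformed, then normalised as a B-score over the screen; higher means more stored lipid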
- Direction: droplet/nuclear area B-score: higher = more stored lipid (overstorage)
In all, the deposit lists about 17,000 reagents; this is a random part of those that have a named target and a result. 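Each column is one replicate's B-score; the combined score over replicates was not deposited, so single values may mislead.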 The numbers tell different reagents against one gene apart. A plus sign joins genes that one reagent is predicted to hit. No sequences are given here.

target | reagent no. | droplet/nuclear area B-score, replicate 1 | droplet/nuclear area B-score, replicate 2 | droplet/nuclear area B-score, replicate 3
Uros2 (Uroporphyrinogen III synthase 2) | 1 | -2.25 | 1.46 | –
spz4 (spatzle 4) | 1 | 1.93 | 1.2 | –
larp (La related protein) | 1 | 1.69 | -0.487 | –
larp (La related protein) | 2 | 3.63 | -0.564 | –
larp (La related protein) | 3 | -0.435 | 0.756 | –
His3:CG33818 + His3:CG33857 + His3:CG33806 + 20 more | 1 | 3 | 2.62 | –
Der-1 (Derlin-1) | 1 | -1.17 | -1.55 | –
Nf1 (Neurofibromin 1) | 1 | 2.05 | 0.668 | –
Cyp6a17 (Cytochrome P450 6a17) | 1 | -0.651 | -0.466 | –
IFT46 (Intraflagellar transport 46) | 1 | 3.38 | -0.0111 | –
Cpr67Fb (Cuticular protein 67Fb) | 1 | 0.128 | -0.0137 | –
Cpr47Ef (Cuticular protein 47Ef) | 1 | 3.12 | 0.0495 | –
Cpr47Ef (Cuticular protein 47Ef) | 2 | 0.0184 | -0.153 | –
Alp12 (Alkaline phosphatase 12) | 1 | -0.305 | -0.224 | –
Cbl (Cbl proto-oncogene) | 1 | 0.178 | 0.209 | –
Cbl (Cbl proto-oncogene) | 2 | -0.618 | 1.74 | –
CG30020 | 1 | 0.0278 | -0.149 | –
CG30020 | 2 | -0.253 | 0.508 | –
CG17734 | 1 | -0.991 | 0.19 | 0.535
eRF3 (eukaryotic translation release factor 3) | 1 | -2.22 | -0.752 | –
upd1 (unpaired 1) | 1 | 0.868 | 1.15 | –
CG14759 | 1 | -0.654 | -0.0166 | –
CG8519 | 1 | -0.764 | -0.482 | –
CG15252 | 1 | -0.0907 | 0.0189 | -0.779
CG13607 | 1 | 7.01 | 1.14 | –
Idh3b (Isocitrate dehydrogenase 3b) | 1 | 0.0225 | -1.27 | –
D2hgdh (D-2-hydroxyglutaric acid dehydrogenase) | 1 | -0.324 | – | –
Upf1 (Upf1 RNA helicase) | 1 | 3.04 | 1.12 | 1.89
ihog (interference hedgehog) | 1 | -1.7 | 1.07 | –
Tpl94D (Transition protein-like 94D) | 1 | 0.0353 | -0.916 | –
CG12107 | 1 | 0.303 | -2.29 | –
Ir60d (Ionotropic receptor 60d) | 1 | 0.11 | -0.12 | –
Septin4 (Septin 4) | 1 | -1.76 | 0.379 | –
Vha36-1 (Vacuolar H[+] ATPase 36kD subunit 1) | 1 | – | -0.462 | –
Mabi (Mabiki) | 1 | -0.154 | 0.0171 | -0.0251
yem (yemanuclein) | 1 | 0.449 | 0.0522 | –
yem (yemanuclein) | 2 | -0.696 | 2.82 | –
Alp2 (Alkaline phosphatase 2) | 1 | -1.16 | -0.312 | –
CG42726 + CG42727 | 1 | -0.0293 | -0.55 | –
CG14958 | 1 | 0.158 | 0.428 | –
Spg7 (Paraplegin) | 1 | 1.64 | 0.424 | –
CG18284 | 1 | -1.63 | 0.0441 | –
CG18284 | 2 | 2.19 | -1.7 | –
CG10576 | 1 | 0.000199 | 0.978 | –
fus (fusilli) | 1 | 0.344 | 0.176 | –
fus (fusilli) | 2 | 0.332 | 1.06 | –
Hsf (Heat shock factor) | 1 | 0.0053 | 1.88 | –
CG8679 | 1 | -0.924 | 0.793 | –
Appl (beta amyloid protein precursor-like) | 1 | -1.15 | – | –
AspRS-m (Aspartyl-tRNA synthetase, mitochondrial) | 1 | 1.04 | -0.000502 | –
Pgm1 (Phosphoglucose mutase 1) | 1 | -0.258 | -0.00253 | 1.66
CG11588 | 1 | 0.129 | -1.2 | –
CG11588 | 2 | 0.67 | 1.13 | –
CG32235 | 1 | 0.00886 | 1.12 | –
Ipk1 (Inositol phosphate kinase 1) | 1 | 0.467 | 0.0254 | –
Ipk1 (Inositol phosphate kinase 1) | 2 | 0.79 | 0.034 | –
Ipk1 (Inositol phosphate kinase 1) | 3 | -0.503 | -0.0393 | –
CenB1A (Centaurin beta 1A) | 1 | -0.0611 | 0.385 | -0.0844
scw (screw) | 1 | -0.615 | -0.599 | –
scw (screw) | 2 | -0.0127 | 0.702 | –
Cyp12a5 (Cytochrome P450 12a5) | 1 | 0.84 | 0.826 | –
qjt (quijote) | 1 | -0.757 | -1.41 | –
CG9338 | 1 | -2.15 | -0.789 | –
CR18275 (pseudo) | 1 | -0.631 | -1.5 | –
CG14715 | 1 | – | -0.839 | –
CG17107 | 1 | 0.309 | 0.116 | -0.239
CG17107 | 2 | -0.529 | -0.38 | –
CG13324 | 1 | -0.612 | 0.638 | –
Snx1 (Sorting nexin 1) | 1 | -1.65 | -2.3 | –
GstD8 (Glutathione S transferase D8) | 1 | 0.899 | 1.31 | –
ktub (king tubby) | 1 | -0.0539 | 0.576 | –
Alms1a (Alstrom syndrome 1a) | 1 | -0.241 | -0.438 | –
Zip102B (Zinc/iron regulated transporter-related protein 102B) | 1 | -0.282 | 0.359 | 1.35
CG11964 | 1 | 0.56 | -1.68 | –
Ugt36D1 (UDP-glycosyltransferase family 36 member D1) | 1 | -0.59 | -0.00482 | –
Cyt-b5 (Cytochrome b5) | 1 | -0.0768 | -1.05 | –
CG15550 | 1 | -0.578 | -1.98 | –
comm2 | 1 | 0.103 | -2.23 | –
comm2 | 2 | -0.751 | 0.661 | –
VhaAC39-2 (Vacuolar H[+] ATPase AC39 subunit 2) | 1 | 0.0234 | -0.131 | –
CG42784 | 1 | -0.105 | -0.0319 | –
CG42784 | 2 | 3.56 | 2.47 | –
CG42784 | 3 | -0.0914 | -1.94 | –
CG42784 | 4 | -0.708 | -1.73 | –

Targets above whose target name starts with F or f:
target | reagent no. | droplet/nuclear area B-score, replicate 1 | droplet/nuclear area B-score, replicate 2 | droplet/nuclear area B-score, replicate 3
fus (fusilli) | 1 | 0.344 | 0.176 | –
fus (fusilli) | 2 | 0.332 | 1.06 | –
